Measured values reported in patent US8999071B2, “Surfactants derived from oligoglycerols” (Dow Global Technologies LLC, priority 2011, dated 2015).
At least one structure is not confirmed: it was looked up by name or label, or the drawing left a doubt.

Assays:
Assay type in all cases: physicochemical
[1] = Acidic stability: appearance and shake foam in 0.01 M HCl; conditions: 0.1 wt % in 0.01M HCl
Description: The acidic stability of compounds 1 and 2 are tested and compared with Triton™ CG-110 in 0.01 M HCl: solutions are prepared in 0.01 M HCl at 0.1 wt % surfactant concentration. Compound 1 solution is cloudy at this HCl concentration, indicating its cloud point is reduced by the presence of HCl.

[2] = Caustic stability: solubility in NaOH solution
Description: The caustic stability of compounds 1 and 2 is measured by their solubility in 10 wt % NaOH solution: stock solutions are prepared at 1 wt %. Into a sample vial, 1.0 gram of a stock solution is weighed and then 9.0 grams of 11.1 wt % NaOH solution is added to get a 0.1 wt % surfactant solution in 10% NaOH. Both solutions are clear at this condition. In contrast, Tomadol® 91-6 (C9-C11 alcohols ethoxylated to 6EO, cloud point=52° C.) solution (0.1 wt %) becomes cloudy at 5% NaOH content.

[3] = Dynamic surface tension, maximum bubble pressure method (Kruss BP-2); conditions: 25° C.
Description: Dynamic surface tension is measured using a Kruss BP-2 Bubble Pressure Tensiometer. During the test, high purity nitrogen gas bubbles are produced in the surfactant solution at an exactly defined bubble generation rate. The gas bubbles enter the liquid through a glass capillary of known radius (0.223 mm). During this process the pressure passes through a maximum whose value is recorded by the instrument. Surface tension is then calculated from the maximum pressure during bubble formation, and reported as a function of bubble surface age, in ms, and bubble frequency. The measurements are made at ambient temperature.
Dynamic surface tension of surfactants at varying surface ages (presented as bubble frequency) are measure by bubble pressure method on Kruss BP2 tensiometer at 0.1 wt % concentration and 25° C.

CCCCCCCCCCOCC(O)COCC(O)COCC(O)CO (stereo not shown) [Compound 2, 3-(3-(3-(decyloxy)-2-hydroxypropoxy)-2-hydroxypropoxy)propane-1,2-diol]
Foam Volume, 20 h ([1]; 10 ml, shaken at high for 10 min., after 20 hours in air at room temperature): 20 mL
Foam Volume, 0 h ([1]; 10 ml, shaken at high for 10 min., right after preparation): 20 mL
foam persistence after shaking, 20 h ([1]; after 20 hours at room temperature): No change
foam persistence after shaking, 0 h ([1]; right after preparation): No change
appearance of 0.1 wt % surfactant solution in 10% NaOH [2]: clear
surface tension over the whole tested range of ageing time compared to C12TG, C11DG and C10DG ([3]; 0.1 wt %, FIG. 2): lower surface tension
Surface Tension @ 6 bubbles/sec., 0.1 wt % ([3]; 6 bubbles/sec.): 39.0 dyne/cm
